One molecule from paper PMC4869360, “An allosteric role for receptor activity-modifying proteins in defining GPCR pharmacology” (Cell Discovery, 2016) can be followed below.

Amino acid sequences for entries named in this document (tags omitted). A change or cut given only in a name is not applied to a line headed by its entry. Residues count along the entry.
UniProt O60894, 27-148: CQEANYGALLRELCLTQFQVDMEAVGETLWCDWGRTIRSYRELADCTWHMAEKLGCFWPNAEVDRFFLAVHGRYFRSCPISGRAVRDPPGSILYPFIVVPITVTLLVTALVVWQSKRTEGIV

Substitutions are numbered along the chain they refer to. Read-outs that look alike come from different tables or passages of the source.

Test [1] concerns the target T1, CT(a) receptor, Y131A mutant (Homo sapiens, UniProt P30988, Y131A).
T1 sequence (P30988 25-474 Y131A): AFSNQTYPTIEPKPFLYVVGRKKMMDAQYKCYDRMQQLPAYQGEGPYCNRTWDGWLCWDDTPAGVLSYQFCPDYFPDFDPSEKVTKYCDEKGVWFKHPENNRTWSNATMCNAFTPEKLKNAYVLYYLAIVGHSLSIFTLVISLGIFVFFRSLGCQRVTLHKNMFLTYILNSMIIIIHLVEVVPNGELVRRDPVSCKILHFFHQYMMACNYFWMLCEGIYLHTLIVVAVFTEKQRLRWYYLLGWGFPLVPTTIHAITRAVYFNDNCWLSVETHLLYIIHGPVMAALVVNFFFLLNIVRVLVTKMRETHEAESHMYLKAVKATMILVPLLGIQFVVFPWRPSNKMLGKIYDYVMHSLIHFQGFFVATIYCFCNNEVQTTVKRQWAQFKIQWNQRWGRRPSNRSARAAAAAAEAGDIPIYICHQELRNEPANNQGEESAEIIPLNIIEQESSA
Kind of test: cAMP assay, Y131A CT(a). It is filed as cell-based. From the text: (§1) This is the insert-negative form of the receptor and is referred to as hCT(a), to comply with International Union of Pharmacology guidelines. Myc tagged RAMP1 and untagged RAMP3 constructs were used for AMY receptor experiments.
(§2) Primers were purchased from Integrated DNA Technologies Ltd (Coralville, IA, USA). Kapa HiFi readymix (Kapa Biosystems, Wilmington, MA, USA) or Primestar HS enzymes (TaKaRa Bio, Kyoto, Japan) were substituted for Pfu polymerase.
(§3) After stimulation the reaction was stopped by removing media and adding 50 μl per well of ice-cold absolute ethanol. Plates were stored at −30 °C for up to 4 days before the measurement of cAMP was performed.
(cAMP levels reflect the balance of adenylyl cyclase and phosphodiesterase activity.)

Test [2] concerns the target CT(a) receptor, Q52A mutant (Homo sapiens, UniProt P30988, Q52A). Kind of test: cell-based.
Description: as §1, §2, §3

For test [3], the target named is CT(a) receptor, M48A mutant (Homo sapiens, UniProt P30988, M48A). Kind of test: cell-based.
Description: as §1, §2, §3

The target in test [4] is CT(a) receptor, N124A mutant (Homo sapiens, UniProt P30988, N124A). Kind of test: cell-based.
Description: as §1, §2, §3

Test [5] addresses CT(a) receptor, Y56A mutant (Homo sapiens, UniProt P30988, Y56A). Kind of test: cell-based.
Description: as §1, §2, §3

Test [6] has as its target AMY1(a) receptor (CT(a)/RAMP1), WT (Homo sapiens, UniProt O60894+P30988). Kind of test: cAMP assay, WT AMY1(a) receptor. It is filed as cell-based. To be noted: Cos-7, mean±s.e.m.
For test [7], the target named is T2, CT(a) receptor, R126A mutant (Homo sapiens, UniProt P30988, R126A).
T2 sequence (P30988 25-474 R126A): T1 sequence (P30988 25-474 Y131A) with R102A, A107Y
Briefly: cAMP assay, R126A CT(a). It is filed as cell-based.
Description: as §1, §2, §3

Test [8] concerns the target AMY1(a) receptor (CT(a)/RAMP1), CTR N124A mutant (Homo sapiens, UniProt O60894+P30988, N124A). Kind of test: cAMP assay, N124A AMY1(a). It is filed as cell-based. To be noted: Cos-7, mean±s.e.m.
Description: as §1, §2, §3

On to `CC(C)C[C@H](NC(=O)[C@H](CC(N)=O)NC(=O)[C@H](CC(N)=O)NC(=O)[C@H](CO)NC(=O)[C@H](CO)NC(=O)[C@H](CCCNC(=N)N)NC(=O)[C@@H](NC(=O)[C@H](CC(C)C)NC(=O)[C@H](Cc1ccccc1)NC(=O)[C@H](CC(N)=O)NC(=O)[C@H](C)NC(=O)[C@H](CC(C)C)NC(=O)[C@H](CCCNC(=N)N)NC(=O)[C@H](CCC(N)=O)NC(=O)[C@@H](NC(=O)[C@H](C)NC(=O)[C@@H]1CSSC[C@H](NC(=O)[C@@H](N)CCCCN)C(=O)N[C@@H](CC(N)=O)C(=O)N[C@@H]([C@@H](C)O)C(=O)N[C@@H](C)C(=O)N[C@@H]([C@@H](C)O)C(=O)N1)[C@@H](C)O)C(C)C)C(=O)NCC(=O)N1CCC[C@H]1C(=O)N[C@H](C(=O)N[C@@H](CC(C)C)C(=O)N1CCC[C@H]1C(=O)N1CCC[C@H]1C(=O)N[C@H](C(=O)N[C@@H](CC(N)=O)C(=O)N[C@H](C(=O)NCC(=O)N[C@@H](CO)C(=O)N[C@@H](CC(N)=O)C(=O)N[C@H](C(=O)N[C@@H](Cc1ccc(O)cc1)C(N)=O)[C@@H](C)O)C(C)C)[C@@H](C)O)C(C)C` [rAmy, rat amylin], for which the EC50 in test [1] is 30900 pM; in test [2], 6760 pM; in test [3], 14800 pM; in test [4], 5750 pM; in test [5], 2190 pM; in test [6] (pEC50 WT, paired with N124A), 182 pM. The EC50 was 89.1 pM in test [6] (paired with D101A, read-out: pEC50 WT (converted)); 126 pM in test [6] (paired with F99A, read-out: pEC50 WT (converted)); 214 pM in test [6] (paired with F102A, read-out: pEC50 WT (converted)); 380 pM in test [6] (paired with G44A, read-out: pEC50 WT (converted)); 186 pM in test [6] (paired with H121A, read-out: pEC50 WT (converted)); 309 pM in test [6] (paired with M48A, read-out: pEC50 WT (converted)). Besides, the EC50 in test [6] (paired with Q52A, read-out: pEC50 WT (converted)) was 219 pM; in test [6] (paired with R45A, read-out: pEC50 WT (converted)), 447 pM; in test [6] (paired with R126A, read-out: pEC50 WT (converted)), 447 pM; in test [6] (paired with RAMP1 Y66A, read-out: pEC50 WT (converted)) it was 214 pM; in test [6] (paired with W79A, read-out: pEC50 WT (converted)), 145 pM; in test [6] (paired with W128A, read-out: pEC50 WT (converted)), 126 pM. The EC50 is 302 pM in test [6] (paired with Y53A, read-out: pEC50 WT (converted)); 166 pM in test [6] (paired with Y56A, read-out: pEC50 WT (converted)); 182 pM in test [6] (paired with Y131A, read-out: pEC50 WT (converted)); 7590 pM in test [7]. In addition, the pEC50 mutant in test [8] turned out to be 9.58±0.19.
